Tested on: Odc2_C19 (Odc2)
Conditions: 50 mM phosphate pH 5.5, 50 μM pyridoxal 5'-phosphate, 37°C; substrate 1-50 mM
Text: HPLC of o-phthalaldehyde-derivatized amine product (decarboxylation), Michaelis-Menten fit on Odc2_C19 (Odc2)

- Km: 4.9 ± 0.9 mM
SMILES: NCCC[C@H](N)C(=O)O [L-ornithine]

Reference: article PMC8928434, “Production of Putrescine and Cadaverine by Paucilactobacillus wasatchensis” (Frontiers in Microbiology, 2022)
